Test results: publication PMC3486646

Protein sequences, listed by entry. Tags and fused reporters are not part of them. Residues count along the entry.
UniProt O95793, residues 82-577: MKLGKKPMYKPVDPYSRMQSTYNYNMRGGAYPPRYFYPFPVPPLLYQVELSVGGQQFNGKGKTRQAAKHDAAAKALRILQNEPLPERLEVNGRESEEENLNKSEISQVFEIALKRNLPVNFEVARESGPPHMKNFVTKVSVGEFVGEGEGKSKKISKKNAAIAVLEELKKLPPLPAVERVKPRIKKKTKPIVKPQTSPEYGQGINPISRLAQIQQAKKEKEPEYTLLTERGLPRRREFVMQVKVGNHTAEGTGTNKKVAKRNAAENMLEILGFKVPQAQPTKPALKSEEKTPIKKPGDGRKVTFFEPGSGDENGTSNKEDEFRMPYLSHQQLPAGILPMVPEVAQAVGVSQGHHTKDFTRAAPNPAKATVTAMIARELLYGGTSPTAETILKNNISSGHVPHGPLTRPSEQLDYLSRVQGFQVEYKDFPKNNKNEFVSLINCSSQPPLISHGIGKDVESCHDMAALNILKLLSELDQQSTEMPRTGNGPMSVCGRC

Molecular target: Staufen1-TAP (UniProt O95793)
Assay: affinity purification with mass spectrometry; tandem affinity purification of Staufen1-TAP from lysates of stable 293T cells, mock or pNL4-3 transfected; eluates on SDS-PAGE, 23 gel slices, in gel trypsin digestion, LC-MS/MS; FDR less than 1%

Row | Binder | binding
1 | Double-stranded RNA-specific adenosine deaminase (protein, UniProt P55265 1-1226) MNPRQGYSLSGYYTHPFQGYEHRQLRYQQPGPGSSPSSFLLKQIEFLKGQLPEAPVIGKQTPSLPPSLPGLRPRFPVLLASSTRGRQVDIRGVPRGVHLRSQGLQRGFQHPSPRGRSLPQRGVDCLSSHFQELSIYQDQEQRILKFLEELGEGKATTAHDLSGKLGTPKKEINRVLYSLAKKGKLQKEAGTPPLWKIAVSTQAWNQHSGVVRPDGHSQGAPNSDPSLEPEDRNSTSVSEDLLEPFIAVSAQAWNQHSGVVRPDSHSQGSPNSDPGLEPEDSNSTSALEDPLEFLDMAEIKEKICDYLFNVSDSSALNLAKNIGLTKARDINAVLIDMERQGDVYRQGTTPPIWHLTDKKRERMQIKRNTNSVPETAPAAIPETKRNAEFLTCNIPTSNASNNMVTTEKVENGQEPVIKLENRQEARPEPARLKPPVHYNGPSKAGYVDFENGQWATDDIPDDLNSIRAAPGEFRAIMEMPSFYSHGLPRCSPYKKLTECQLKNPISGLLEYAQFASQTCEFNMIEQSGPPHEPRFKFQVVINGREFPPAEAGSKKVAKQDAAMKAMTILLEEAKAKDSGKSEESSHYSTEKESEKTAESQTPTPSATSFFSGKSPVTTLLECMHKLGNSCEFRLLSKEGPAHEPKFQYCVAVGAQTFPSVSAPSKKVAKQMAAEEAMKALHGEATNSMASDNQPEGMISESLDNLESMMPNKVRKIGELVRYLNTNPVGGLLEYARSHGFAAEFKLVDQSGPPHEPKFVYQAKVGGRWFPAVCAHSKKQGKQEAADAALRVLIGENEKAERMGFTEVTPVTGASLRRTMLLLSRSPEAQPKTLPLTGSTFHDQIAMLSHRCFNTLTNSFQPSLLGRKILAAIIMKKDSEDMGVVVSLGTGNRCVKGDSLSLKGETVNDCHAEIISRRGFIRFLYSELMKYNSQTAKDSIFEPAKGGEKLQIKKTVSFHLYISTAPCGDGALFDKSCSDRAMESTESRHYPVFENPKQGKLRTKVENGEGTIPVESSDIVPTWDGIRLGERLRTMSCSDKILRWNVLGLQGALLTHFLQPIYLKSVTLGYLFSQGHLTRAICCRVTRDGSAFEDGLRHPFIVNHPKVGRVSIYDSKRQSGKTKETSVNWCLADGYDLEILDGTRGTVDGPRNELSRVSKKNIFLLFKKLCSFRYRRDLLRLSYGEAKKAARDYETAKNYFKKGLKDMGYGNWISKPQEEKNFYLCPV | binds
2 | Heterogeneous nuclear ribonucleoprotein H3 (protein, UniProt P31942 1-346) MDWVMKHNGPNDASDGTVRLRGLPFGCSKEEIVQFFQGLEIVPNGITLTMDYQGRSTGEAFVQFASKEIAENALGKHKERIGHRYIEIFRSSRSEIKGFYDPPRRLLGQRPGPYDRPIGGRGGYYGAGRGSMYDRMRRGGDGYDGGYGGFDDYGGYNNYGYGNDGFDDRMRDGRGMGGHGYGGAGDASSGFHGGHFVHMRGLPFRATENDIANFFSPLNPIRVHIDIGADGRATGEADVEFVTHEDAVAAMSKDKNNMQHRYIELFLNSTPGGGSGMGGSGMGGYGRDGMDNQGGYGSVGRMGMGNNYSGGYGTPDGLGGYGRGGGGSGGYYGQGGMSGGGWRGMY | binds
3 | Heterogeneous nuclear ribonucleoprotein R (protein, UniProt O43390 1-633) MANQVNGNAVQLKEEEEPMDTSSVTHTEHYKTLIEAGLPQKVAERLDEIFQTGLVAYVDLDERAIDALREFNEEGALSVLQQFKESDLSHVQNKSAFLCGVMKTYRQREKQGSKVQESTKGPDEAKIKALLERTGYTLDVTTGQRKYGGPPPDSVYSGVQPGIGTEVFVGKIPRDLYEDELVPLFEKAGPIWDLRLMMDPLSGQNRGYAFITFCGKEAAQEAVKLCDSYEIRPGKHLGVCISVANNRLFVGSIPKNKTKENILEEFSKVTEGLVDVILYHQPDDKKKNRGFCFLEYEDHKSAAQARRRLMSGKVKVWGNVVTVEWADPVEEPDPEVMAKVKVLFVRNLATTVTEEILEKSFSEFGKLERVKKLKDYAFVHFEDRGAAVKAMDEMNGKEIEGEEIEIVLAKPPDKKRKERQAARQASRSTAYEDYYYHPPPRMPPPIRGRGRGGGRGGYGYPPDYYGYEDYYDDYYGYDYHDYRGGYEDPYYGYDDGYAVRGRGGGRGGRGAPPPPRGRGAPPPRGRAGYSQRGAPLGPPRGSRGGRGGPAQQQRGRGSRGSRGNRGGNVGGKRKADGYNQPDSKRRQTNNQQNWGSQPIAQQPLQQGGDYSGNYGYNNDNQEFYQDTYGQQWK | binds
4 | Mannosyl-oligosaccharide glucosidase (protein, UniProt Q13724 1-837) MARGERRRRAVPAEGVRTAERAARGGPGRRDGRGGGPRSTAGGVALAVVVLSLALGMSGRWVLAWYRARRAVTLHSAPPVLPADSSSPAVAPDLFWGTYRPHVYFGMKTRSPKPLLTGLMWAQQGTTPGTPKLRHTCEQGDGVGPYGWEFHDGLSFGRQHIQDGALRLTTEFVKRPGGQHGGDWSWRVTVEPQDSGTSALPLVSLFFYVVTDGKEVLLPEVGAKGQLKFISGHTSELGDFRFTLLPPTSPGDTAPKYGSYNVFWTSNPGLPLLTEMVKSRLNSWFQHRPPGAPPERYLGLPGSLKWEDRGPSGQGQGQFLIQQVTLKIPISIEFVFESGSAQAGGNQALPRLAGSLLTQALESHAEGFRERFEKTFQLKEKGLSSGEQVLGQAALSGLLGGIGYFYGQGLVLPDIGVEGSEQKVDPALFPPVPLFTAVPSRSFFPRGFLWDEGFHQLVVQRWDPSLTREALGHWLGLLNADGWIGREQILGDEARARVPPEFLVQRAVHANPPTLLLPVAHMLEVGDPDDLAFLRKALPRLHAWFSWLHQSQAGPLPLSYRWRGRDPALPTLLNPKTLPSGLDDYPRASHPSVTERHLDLRCWVALGARVLTRLAEHLGEAEVAAELGPLAASLEAAESLDELHWAPELGVFADFGNHTKAVQLKPRPPQGLVRVVGRPQPQLQYVDALGYVSLFPLLLRLLDPTSSRLGPLLDILADSRHLWSPFGLRSLAASSSFYGQRNSEHDPPYWRGAVWLNVNYLALGALHHYGHLEGPHQARAAKLHGELRANVVGNVWRQYQATGFLWEQYSDRDGRGMGCRPFHGWTSLVLLAMAEDY | binds
5 | NF-kappaB repressing factor (protein, UniProt A3F768 1-690) MEKILQMAEGIDIGEMPSYDLVLSKPSKGQKRHLSTCDGQNPPKKQAGSKFHARPRFEPVHFVASSSKDEGQEDPYGPQTKEVNEQTHFASMPRDIYQDYTQDSFSIQDGNSQYCDSSGFILTKDQPVTANMYFDSGNPAPSTTSQQANSQSTPEPSPSQTFPESVVAEKQYFIEKLTATIWKNLSNPEMTSGSDKINYTYMLTRCIQACKTNPEYIYAPLKEIPPADIPKNKKLLTDGYACEVRCQNIYLTTGYAGSKNGSRDRATELAVKLLQKRIEVRVVRRKFKHTFGEDLVVCQIGMSSYEFPPALKPPEDLVVLGKDASGQPIFNASAKHWTNFVITENANDAIGILNNSASFNKMSIEYKYEMMPNRTWRCRVFLQDHCLAEGYGTKKTSKHAAADEALKILQKTQPTYPSVKSSQCHTGSSPRGSGKKKDIKDLVVYENSSNPVCTLNDTAQFNRMTVEYVYERMTGLRWKCKVILESEVIAEAVGVKKTVKYEAAGEAVKTLKKTQPTVINNLKKGAVEDVISRNEIQGRSAEEAYKQQIKEDNIGNQLLRKMGWTGGGLGKSGEGIREPISVKEQHKREGLGLDVERVNKIAKRDIEQIIRNYARSESHTDLTFSRELTNDERKQIHQIAQKYGLKSKSHGVGHDRYLVVGRKRRKEDLLDQLKQEGQVGHYELVMPQAN | binds
6 | Non-POU domain-containing octamer-binding protein (protein, UniProt Q15233 1-471) MQSNKTFNLEKQNHTPRKHHQHHHQQQHHQQQQQQPPPPPIPANGQQASSQNEGLTIDLKNFRKPGEKTFTQRSRLFVGNLPPDITEEEMRKLFEKYGKAGEVFIHKDKGFGFIRLETRTLAEIAKVELDNMPLRGKQLRVRFACHSASLTVRNLPQYVSNELLEEAFSVFGQVERAVVIVDDRGRPSGKGIVEFSGKPAARKALDRCSEGSFLLTTFPRPVTVEPMDQLDDEEGLPEKLVIKNQQFHKEREQPPRFAQPGSFEYEYAMRWKALIEMEKQQQDQVDRNIKEAREKLEMEMEAARHEHQVMLMRQDLMRRQEELRRMEELHNQEVQKRKQLELRQEEERRRREEEMRRQQEEMMRRQQEGFKGTFPDAREQEIRMGQMAMGGAMGINNRGAMPPAPVPAGTPAPPGPATMMPDGTLGLTPPTTERFGQAATMEGIGAIGGTPPAFNRAAPGAEFAPNKRRRY | binds
7 | Nuclear pore complex protein 155 (protein, UniProt O75694 1-1391) MPSSLLGAAMPASTSAAALQEALENAGRLIDRQLQEDRMYPDLSELLMVSAPNNPTVSGMSDMDYPLQGPGLLSVPNLPEISSIRRVPLPPELVEQFGHMQCNCMMGVFPPISRAWLTIDSDIFMWNYEDGGDLAYFDGLSETILAVGLVKPKAGIFQPHVRHLLVLATPVDIVILGLSYANLQTGSGVLNDSLSGGMQLLPDPLYSLPTDNTYLLTITSTDNGRIFLAGKDGCLYEVAYQAEAGWFSQRCRKINHSKSSLSFLVPSLLQFTFSEDDPILQIAIDNSRNILYTRSEKGVIQVYDLGQDGQGMSRVASVSQNAIVSAAGNIARTIDRSVFKPIVQIAVIENSESLDCQLLAVTHAGVRLYFSTCPFRQPLARPNTLTLVHVRLPPGFSASSTVEKPSKVHRALYSKGILLMAASENEDNDILWCVNHDTFPFQKPMMETQMTAGVDGHSWALSAIDELKVDKIITPLNKDHIPITDSPVVVQQHMLPPKKFVLLSAQGSLMFHKLRPVDQLRHLLVSNVGGDGEEIERFFKLHQEDQACATCLILACSTAACDREVSAWATRAFFRYGGEAQMRFPTTLPPPSNVGPILGSPVYSSSPVPSGSPYPNPSFLGTPSHGIQPPAMSTPVCALGNPATQATNMSCVTGPEIVYSGKHNGICIYFSRIMGNIWDASLVVERIFKSGNREITAIESSVPCQLLESVLQELKGLQEFLDRNSQFAGGPLGNPNTTAKVQQRLIGFMRPENGNPQQMQQELQRKFHEAQLSEKISLQAIQQLVRKSYQALALWKLLCEHQFTIIVAELQKELQEQLKITTFKDLVIRDKELTGALIASLINCYIRDNAAVDGISLHLQDICPLLYSTDDAICSKANELLQRSRQVQNKTEKERMLRESLKEYQKISNQVDLSNVCAQYRQVRFYEGVVELSLTAAEKKDPQGLGLHFYKHGEPEEDIVGLQAFQERLNSYKCITDTLQELVNQSKAAPQSPSVPKKPGPPVLSSDPNMLSNEEAGHHFEQMLKLSQRSKDELFSIALYNWLIQVDLADKLLQVASPFLEPHLVRMAKVDQNRVRYMDLLWRYYEKNRSFSNAARVLSRLADMHSTEISLQQRLEYIARAILSAKSSTAISSIAADGEFLHELEEKMEVARIQLQIQETLQRQYSHHSSVQDAVSQLDSELMDITKLYGEFADPFKLAECKLAIIHCAGYSDPILVQTLWQDIIEKELSDSVTLSSSDRMHALSLKIVLLGKIYAGTPRFFPLDFIVQFLEQQVCTLNWDVGFVIQTMNEIGVPLPRLLEVYDQLFKSRDPFWNRMKKPLHLLDCIHVLLIRYVENPSQVLNCERRRFTNLCLDAVCGYLVELQSMSSSVAVQAITGNFKSLQAKLERLH | binds
8 | Peroxiredoxin-6 (protein, UniProt P30041 1-224) MPGGLLLGDVAPNFEANTTVGRIRFHDFLGDSWGILFSHPRDFTPVCTTELGRAAKLAPEFAKRNVKLIALSIDSVEDHLAWSKDINAYNCEEPTEKLPFPIIDDRNRELAILLGMLDPAEKDEKGMPVTARVVFVFGPDKKLKLSILYPATTGRNFDEILRVVISLQLTAEKRVATPVDWKDGDSVMVLPTIPEEEAKKLFPKGVFTKELPSGKKYLRYTPQP | binds

Results are given in words; binding and its absence hold for the method and conditions named. In cells and extracts the contact can be indirect. Here binding means that the protein was enriched with, or labelled near, the bait; the list need not be complete. Tags and fused reporters may be left off the sequences shown.
